Values from PubChem BioAssay AID652272 (Drosophila RNAi Screening Center, 2013).
Aim: 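Finding fly genes that regulate Hedgehog signal transduction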 (primary screen). System: Drosophila clone 8 (Cl8) cells. Knock-down reagent: long dsRNA against Drosophila genes. Measurement: 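Plate reader light from a firefly reporter under a ptc promoter fragment that responds to Hedgehog, with Renilla light as transfection reference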. Scale: firefly Hh reporter signal: higher = more ptc reporter light; Renilla reference signal: higher = more Renilla control light. Active means: 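Called a hit if the two-replicate mean z-score lies below -2 or above +3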. Calls: active = hit: reporter lowered or raised; inactive = not a hit.
The screen tested about 21,000 reagents; this is a random part of those that have a named target and a result. In the full data, 503 (2.4%) were called active. 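Raw plate light values, not normalised; calls rest on replicate z-scores that were not deposited; hits include reporter decreases as well as increases.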 Reagents against one gene are numbered here. Names joined by + are all predicted targets of the reagent. No sequences are given here. Not stated in the record: the amount of reagent, the time to read-out.

| gene | dsRNA no. | firefly Hh reporter signal, replicate 1 | firefly Hh reporter signal, replicate 2 | firefly Hh reporter signal, replicate 3 | Renilla reference signal, replicate 1 | Renilla reference signal, replicate 2 | activity call |
| --- | --- | --- | --- | --- | --- | --- | --- |
| CG4021 | 1 | 94009 | 69081 | – | 2864 | 7120 | inactive |
| Acp26Aa | 1 | 83638 | 48061 | – | 2295 | 5399 | inactive |
| RpLP1 | 1 | 67716 | 27955 | – | 2533 | 1241 | active |
| Mid1 | 1 | 94732 | 5.44e5 | 59346 | 2453 | 31883 | inactive |
| Mid1 | 2 | 1.17e5 | 65066 | – | 2908 | 5819 | inactive |
| Mid1 | 3 | 1.02e5 | 53456 | – | 2662 | 5236 | inactive |
| CG34304 (retired record) | 1 | 1.69e5 | – | – | 2780 | – | inactive |
| CG6791 | 1 | 1.69e5 | 1.03e5 | – | 7562 | 4679 | inactive |
| CG10337 | 1 | 80651 | 71754 | – | 1664 | 5979 | inactive |
| CG14332 | 1 | 82139 | 89913 | – | 2390 | 2473 | inactive |
| ScsbetaG | 1 | 42987 | 55187 | – | 5498 | 4093 | inactive |
| Lsd-1 | 1 | 1.27e5 | 75732 | – | 5618 | 2316 | inactive |
| CG6833 | 1 | 85238 | 50902 | – | 3584 | 1864 | inactive |
| glob2 | 1 | 41144 | 89034 | – | 1589 | 3133 | inactive |
| FipoQ | 1 | 64325 | 47552 | – | 2027 | 1841 | inactive |
| CG6138 | 1 | 75974 | 58395 | – | 1846 | 5341 | inactive |
| CG8765 | 1 | 58144 | 68923 | – | 2791 | 2469 | inactive |
| CecC | 1 | 74624 | 1.36e5 | – | 1904 | 3669 | inactive |
| CG6421 | 1 | 78996 | 62449 | – | 2166 | 4771 | inactive |
| Pdf | 1 | 4.46e5 | 64452 | – | 2265 | 2265 | inactive |
| CYLD | 1 | 1.10e5 | 34795 | – | 2698 | 3965 | inactive |
| Uba1 | 1 | 48486 | 46888 | – | 3097 | 2930 | inactive |
| CG1827 | 1 | 44096 | 49869 | – | 2185 | 2018 | inactive |
| CG30458 | 1 | 1.38e5 | 84311 | – | 3770 | 6461 | inactive |
| Oatp74D | 1 | 3.86e5 | – | – | 7474 | – | inactive |
| Oatp74D | 2 | 1.19e5 | 81629 | – | 4304 | 3271 | inactive |
| CG11566 (retired record) + stg1 | 1 | 48018 | 61285 | – | 2081 | 3649 | inactive |
| CG11566 (retired record) + stg1 | 2 | 91660 | 1.58e5 | – | 3673 | 7712 | inactive |
| CG11566 (retired record) + stg1 | 3 | 1.22e5 | 2.08e5 | – | 4460 | 8677 | inactive |
| CG11566 (retired record) + stg1 | 4 | 1.15e5 | 2.23e5 | – | 4224 | 8901 | inactive |
| Vps28 | 1 | 81098 | 70471 | – | 3378 | 2923 | inactive |
| Ilp1 | 1 | 16935 | 36518 | 44780 | 3282 | 3178 | inactive |
| onecut | 1 | 85491 | 2.22e5 | – | 3490 | 8293 | inactive |
| Dscam1 | 1 | 1.36e5 | 2.64e5 | – | 3644 | 12428 | inactive |
| Dscam1 | 2 | 1.26e5 | 2.66e5 | – | 3507 | 11257 | inactive |
| Dscam1 | 3 | 89180 | 45307 | – | 2074 | 3559 | inactive |
| CG43658 | 1 | 62411 | 3.20e5 | – | 1995 | 10249 | inactive |
| CG43658 | 2 | 66518 | 2.71e5 | – | 1765 | 9849 | inactive |
| CG11828 | 1 | 1.36e5 | 2.01e5 | – | 5051 | 6737 | inactive |
| sfl | 1 | 1.01e5 | 2.41e5 | – | 1969 | 8256 | inactive |
| sfl | 2 | 1.38e5 | 2.46e5 | – | 2928 | 8701 | inactive |
| CG18343 | 1 | 74418 | 48027 | – | 1702 | 3493 | inactive |
| Slh | 1 | 95928 | 93493 | – | 2650 | 2240 | inactive |
| Slh | 2 | 1.12e5 | 69136 | – | 2306 | 1474 | inactive |
| Root | 1 | 4.98e5 | 1.14e5 | – | 25346 | 3616 | inactive |
| RhoGAP54D | 1 | 53717 | 37073 | – | 1492 | 2631 | inactive |
| PEK | 1 | 1.55e5 | 1.32e5 | – | 5376 | 5320 | inactive |

A few values from above.
Entry of Oatp74D #1 in “Renilla reference signal, replicate 1”: 7474
Entry of CG11566 (retired record) + stg1 #3 under “Renilla reference signal, replicate 1”: 4460
CG10337, Renilla reference signal, replicate 2 → 5979
Under “activity call”, Acp26Aa has inactive
Result of CG11828 in “activity call”: inactive
Entry of Ilp1 under “firefly Hh reporter signal, replicate 1”: 16935

Additional entries follow.
| gene | dsRNA no. | firefly Hh reporter signal, replicate 1 | firefly Hh reporter signal, replicate 2 | firefly Hh reporter signal, replicate 3 | Renilla reference signal, replicate 1 | Renilla reference signal, replicate 2 | activity call |
| --- | --- | --- | --- | --- | --- | --- | --- |
| CG31917 + Tfb5 | 1 | 1.66e5 | 78028 | – | 3216 | 5533 | inactive |
| CG31917 + Tfb5 | 2 | 64641 | 42790 | – | 1574 | 2487 | inactive |
| CG17298 | 1 | 8.15e5 | 1.88e5 | – | 42258 | 3203 | inactive |
| dgt5 | 1 | 52388 | 29411 | – | 2586 | 1417 | inactive |
| CG13380 + CG4174 | 1 | 66249 | 46997 | – | 2704 | 1913 | inactive |
| CG13380 + CG4174 | 2 | 88282 | – | – | 1991 | 2816 | inactive |
| hyd | 1 | 78592 | 1.32e5 | – | 1610 | 3741 | inactive |
| 4E-T | 1 | 81680 | 65072 | – | 1696 | 2688 | inactive |
| 4E-T | 2 | 70487 | 1.90e5 | – | 2121 | 8209 | inactive |
| Osi15 | 1 | 48568 | 1.04e5 | – | 2647 | 3291 | inactive |
| kst | 1 | 95392 | 1.05e5 | – | 4327 | 4274 | inactive |
| CG8460 | 1 | 86392 | 59265 | – | 3792 | 2567 | inactive |
| ND-MWFE | 1 | 1.26e5 | 69089 | – | 3542 | 5475 | inactive |
| CG5664 | 1 | 4.84e5 | 89734 | – | 4589 | 4589 | inactive |
| ACXD | 1 | 46278 | 35522 | – | 1588 | 2445 | inactive |
| form3 | 1 | 70413 | 63245 | – | 5429 | 5210 | inactive |
| form3 | 2 | 1.03e5 | 73046 | – | 4850 | 3624 | inactive |
| form3 | 3 | 51376 | 80600 | – | 3533 | 5709 | inactive |
| Ptp4E | 1 | 1.05e5 | 70966 | – | 2274 | 1920 | inactive |
| CG18094 | 1 | 81687 | 46304 | – | 2305 | 4080 | inactive |
| CG42307 + mus312 | 1 | 56981 | 69621 | – | 6057 | 5572 | inactive |
| CG17272 | 1 | 4.35e5 | 63389 | – | 28752 | 6618 | active |
| Gdap2 | 1 | 1.02e5 | 55168 | – | 2285 | 4861 | inactive |
| Gdap2 | 2 | 91098 | 48837 | – | 1792 | 3707 | inactive |
| CG11638 | 1 | 78155 | 1.94e5 | – | 1712 | 7893 | inactive |
| CG11638 | 2 | 69033 | 1.97e5 | – | 1818 | 7564 | inactive |
